# Measured values: paper PMC7862700
# Only a part is listed here, and it is no random draw. At the low end of the ranking the order means little.
# Target: SPI1 (UniProt P17947)
# Assay: DAPPL (digital affinity profiling via proximity ligation, sequencing)
# Conditions: 10 mM Tris-HCl pH 7.5, 50 mM NaCl, 1 mM DTT, 4% glycerol, room temperature, 30 min; GST-TFs on glutathione beads, 16-mer random dsDNA library, 0.1% …; high values mean tight binding; double strand, one strand shown; scale: fold enrichment (6-mer frequency, TF over GST control)
row,Sequence,binding signal
1,GGACGC,0.385
2,ACCGTG,0.23
3,GCGGGC,0.752
4,GCTCGG,0.717
5,AAGAGC,0.854
6,CGGGGA,0.449
7,CGTGGC,0.853
8,TCGGGC,0.49
9,ATGTGA,0.674
10,TAGACG,0.758
11,CAGTCA,0.515
12,TCAGAG,0.687
13,CAGTAA,0.738
14,AGTCAA,0.699
15,CATAGG,0.752
16,GGTGAC,0.819
17,CGGCGT,0.892
18,CCCAGC,0.937
19,GAACGA,0.769
20,AATCGG,0.556

# Given with tabs: part of the list above
row	Sequence	binding signal
6	CGGGGA	0.449
7	CGTGGC	0.853
8	TCGGGC	0.49
9	ATGTGA	0.674
10	TAGACG	0.758
11	CAGTCA	0.515
12	TCAGAG	0.687
13	CAGTAA	0.738
14	AGTCAA	0.699

# Continuation.

row,Sequence,binding signal
1,CGGCAG,0.768
2,GGACAA,0.741
3,GGGAAC,0.869
4,AGGCAG,0.517
5,GAGGAC,0.56
6,CGAGGA,0.589
7,TGTGTA,0.861
8,AGAGTC,0.403
9,AGCCGG,0.576
10,AGACAG,0.524
11,TCGGGA,0.381
12,TGTGTG,0.876
13,CGGCGC,0.609
14,CGAGCG,0.974
15,GTCTGT,0.883
16,CGTGGT,0.583
17,AGGGCC,0.933
18,TAGTGA,0.557
19,GCATTG,0.759
20,AGACAA,0.807
